System: HCT-8 host cells (Hs18S)

Q: Which results are given for Cl.NCCC[C@H](N)C(=O)O [ORNITHINE HYDROCHLORIDE]?
A: Hs18S ΔCT: -0.07; Cytotoxicity (%) (10 µM): -5.2
